# The campaign covered roughly 390,000 compounds. About 60 (0.02%) were called active. Inconclusive means that the source gave no clear call. Such entries were picked first, then a sample of the others. Rule as the data show it: active = activity change below about -50%; inconclusive = between about -30% and that limit; inactive = weaker than that.
# The chains behind the UniProt entries cited, without tags or fusion partners.
# UniProt Q9GZU1, whole entry, looked up: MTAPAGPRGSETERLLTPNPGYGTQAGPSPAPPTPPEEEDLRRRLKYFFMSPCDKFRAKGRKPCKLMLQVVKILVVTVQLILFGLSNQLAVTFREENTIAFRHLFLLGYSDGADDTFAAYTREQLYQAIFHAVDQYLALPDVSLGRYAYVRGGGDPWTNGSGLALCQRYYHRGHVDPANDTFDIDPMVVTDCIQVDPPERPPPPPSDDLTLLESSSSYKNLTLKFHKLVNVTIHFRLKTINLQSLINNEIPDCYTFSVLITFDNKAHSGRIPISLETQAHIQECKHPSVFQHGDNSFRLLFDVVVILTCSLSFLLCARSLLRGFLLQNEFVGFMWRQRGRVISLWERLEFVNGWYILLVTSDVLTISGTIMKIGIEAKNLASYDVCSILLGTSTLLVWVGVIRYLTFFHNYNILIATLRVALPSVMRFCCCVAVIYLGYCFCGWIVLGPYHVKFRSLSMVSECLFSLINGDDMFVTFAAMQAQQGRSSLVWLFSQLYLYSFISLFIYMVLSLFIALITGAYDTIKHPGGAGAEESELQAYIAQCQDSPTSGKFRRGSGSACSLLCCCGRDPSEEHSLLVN
# Target: Mucolipin-1 (Homo sapiens) (UniProt Q9GZU1)
# Test: qHTS for Inhibitors of the Human Mucolipin Transient Receptor Potential 1 (TRPML1);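 also: stimulus is agonist 54-4 at its EC80 concentration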
# Conditions: TRPML1-inducible cells, Ca2+ dye fluorescence, FDSS; active compounds read low; inhibition of EC80 agonist-evoked calcium signal
# Procedure, shortened: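 Calcium fluorescence in TRPML1-DL cells induced overnight with Tet: a 110 s read after compound pin addition, then a 110 s antagonist read after challenge with 54-4 at 4 uM final (EC80).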
# % is scaled to controls: 0 for no effect and ±100 for the full control effect.
row,Compound,"activity change, negative = inhibition"
1,COC(=O)c1ccccc1NC(=O)Cn1nc(C(F)(F)F)c2c1CCCC2,inconclusive: -41.3%
2,CCOCCCn1c(=S)[nH]c2cc(C(=O)N3CCC(C(N)=O)(N4CCCCC4)CC3)ccc2c1=O,inconclusive: -34.8%
3,Cc1cccc(C)c1NC(=O)c1cc(S(=O)(=O)N2CCCc3ccccc32)ccc1F,inactive: 50.1%
4,C[C@H]1CN([C@@H](C)CO)C(=O)CCCn2nncc2CO[C@H]1CN(C)S(=O)(=O)c1cccc(F)c1,active: -65.3%
5,O=C(N/N=C/c1ccc(Br)s1)c1ccccn1,inactive: -7.25%
6,CCCCn1c(N)c(N(CCOC)C(=O)c2c(C)noc2C)c(=O)[nH]c1=O,inconclusive: -43.2%
7,O=C(O)/C=C/c1ccc(S(=O)(=O)N2CCN(CCN3C(=O)C4C5C=CC(C5)C4C3=O)CC2)cc1 (stereo unspecified),inconclusive: -30.5%
8,COC(=O)CCCC(=O)N1CCOCCN(C(=O)CCCC(=O)OC)CCOCC1,inconclusive: -33.5%
9,COc1ccc(Cc2nnc(SC)[nH]c2=O)cc1,inconclusive: -31.3%
10,O=C(C=Cc1ccccc1)c1cccs1,inconclusive: -34.4%
11,CCN1C(=O)[C@@H]2[C@@H](c3ccc(-c4ccc(Cl)c(Cl)c4)cc3)N3CCC[C@@]3(C(=O)OC)[C@@H]2C1=O,inconclusive: -32.4%
12,O=C1NCC(O)=C1C=NCCCO,inactive: 37.7%
13,CC12CN3CC(c4ccccc4)(CN(C1)C3c1ccc(Cl)cc1)C2=O (stereo unspecified),inactive: -0.837%
14,CN(Cc1cccnc1)Cc1cn(C)nc1-c1cccc(Cl)c1,inconclusive: -35.7%
15,CC1CCCC(C)N1/N=C/c1ccccc1C(=O)O (stereo unspecified),inconclusive: -35.8%
16,CCN(c1ccc(OC)cc1)S(=O)(=O)c1nnc(NC(=O)c2ccccc2C)s1,inconclusive: -38.3%
17,CCCc1ccc(OCC(=O)Nc2sc3c(c2C(=O)OC)CCCCC3)cc1,inactive: 39.5%
18,CCOc1ccc(-n2c(=O)c3sccc3n(CC(=O)NC3CCCCC3)c2=O)cc1,inactive: 38.5%
19,COc1cc(SC)ccc1C(=O)Nc1nc2ccccc2[nH]1,inconclusive: -36.6%
20,Cc1ccc2nc(/C(C#N)=C\c3ccc([N+](=O)[O-])o3)[nH]c2c1,inconclusive: -30.5%
21,C=Cc1ccc(Cn2c(=O)n(-c3ccc(C)cc3)c(=O)c3c2c2cc(OC)ccc2n3C)cc1,inactive: 10.1%
22,Cc1c(N2C(=O)/C(=C\c3ccc(N(C)C)cc3)N(C)C2=S)c(=O)n(-c2ccccc2)n1C,inactive: -2.48%

row,Compound,"activity change, negative = inhibition"
1,NC(=O)Cn1c(=O)n(C2CCCCC2)c(=O)c2c3c(sc21)CCCCC3,inconclusive: -33.2%
2,O=C(CSc1ccc(Cl)cc1)Nc1ncccn1,inconclusive: -30.4%
3,O=[N+]([O-])c1ccc(NC(c2ccccc2)c2ccc3cccnc3c2O)cc1 (stereo unspecified),inactive: 9.01%
4,O=C(CC1C(=O)N(c2ccccc2)C(=S)N1c1ccccc1)c1ccc(Br)cc1 (stereo unspecified),inactive: 28.9%
5,Cc1cc(=O)[nH]c(N/N=C/c2ccccc2C(F)(F)F)n1,inconclusive: -30.2%
6,N#C/C(=C\c1ccc(-c2ccc([N+](=O)[O-])cc2)o1)C(=O)Nc1nc(-c2cccs2)cs1,active: -101%
7,CC1Sc2ccc(S(=O)(=O)CCC(=O)N(C)Cc3ccco3)cc2NC1=O (stereo unspecified),inconclusive: -46.4%
8,O=C(O)C1Cn2c(nc3c(c2=O)C2(CCCC2)Cc2ccccc2-3)S1 (stereo unspecified),inconclusive: -37.9%
9,Cc1ccc2c(c1)-c1c(ssc1=S)C(C)(C)N2C(=O)CN1C(=O)c2ccccc2C1=O,inconclusive: -30.7%
10,NC(=O)CC(NC(=O)c1ccccc1)c1ccc(NC2CCN(Cc3ccccc3)CC2)c([N+](=O)[O-])c1 (stereo unspecified),inactive: -5.59%
11,CCOC(=O)c1cccc(NC(=O)C(CC(C)C)N2Cc3ccccc3C2=O)c1 (stereo unspecified),inconclusive: -30.4%
12,O=S(=O)(c1cccs1)N1CCN(c2ccccc2Cl)CC1,inconclusive: -30.8%
13,O=C(OCC(=O)N1CCCC1)c1c2c(nc3ccccc13)CCCCC2,inconclusive: -30.4%
14,Cc1ccc(-n2nc3c(c2NC(=O)C2CC2)CS(=O)(=O)C3)cc1C,inconclusive: -38.1%
15,CC(C)NC(=O)CCCn1cc([N+](=O)[O-])cn1,inconclusive: -32%
16,CCOc1ccc(C2NC(=O)C(C#N)=C(S)N2c2ccc(C)cc2)cc1OC (stereo unspecified),inconclusive: -31.7%
17,OCCCNc1nc(-c2ccccc2)c2cc(Br)ccc2n1,inactive: 31.8%
18,CCC(=O)N1CCc2cc(S(=O)(=O)CCC(=O)NCc3ccccc3OC)ccc21,inconclusive: -48.5%
19,Cc1ccccc1CNC(=O)c1ccc2nc([C@@H]3O[C@H](CO)[C@H](O)[C@H](O)[C@H]3O)[nH]c2c1,inconclusive: -47.9%
20,CCC(C)NC(=O)C1=CCN(S(=O)(=O)c2ccc(C)cc2)CC1 (stereo unspecified),active: -53.9%
21,COc1ccc(NS(=O)(=O)c2ccc3[nH]c4c(c3c2)CCCC4)cc1OC,inactive: 18.7%
22,CC(=O)Nc1cc2c(cc1C(C)=O)OCCO2,inconclusive: -35.3%

row,Compound,"activity change, negative = inhibition"
1,CC(C)(C)NC(=O)NC(=O)CN1CCN(c2ccccc2)CC1,inconclusive: -35.6%
2,COc1ccc(-c2nnc(NC(=O)c3ccccc3C)o2)cc1,inactive: -7.1%
3,Cc1cc2n(n1)CCC(=O)N2Cc1ccc(C(=O)Nc2ccc(F)cc2F)cc1,inconclusive: -34.1%
4,CCCn1c(=N)n(CC(=O)C(C)(C)C)c2ccccc21,inactive: -3.56%
5,O=C(CC12CC3CC(CC(C3)C1)C2)NC(=S)NCc1ccccc1,inconclusive: -35.4%
6,COc1ccc(-c2ccc(CCC(=O)O)n2-c2ccccc2O)cc1,inconclusive: -35.5%
7,Cc1ccccc1NC(=O)c1ccc(-c2ccc(Cl)cc2Cl)o1,active: -50.6%
8,CCN(CC)c1ccc(C(=O)NCc2ccc3c(c2)CCN3C(=O)c2ccc(F)cc2)cc1,inactive: 4.83%
9,O=C(c1ccc(Cl)c(S(=O)(=O)N2CCCCC2)c1)N1CCCCC1,inconclusive: -30.6%
10,O=S(=O)(c1ccc(F)cc1)N1CCN(CC(O)COCc2cccs2)CC1 (stereo unspecified),inactive: 13.5%
11,CCc1ccc(-c2nc(CS(=O)CC(=O)NCCN3CCCCCC3)c(C)o2)cc1 (stereo unspecified),inactive: -9.65%
12,O=C1C=CCC(/C=C/c2ccccc2)O1 (stereo unspecified),inactive: -7.2%
13,Cc1ccc(NC(=O)N2CCc3cc(S(=O)(=O)N4CCC(C)CC4)ccc32)cc1C,inconclusive: -34.8%
14,Cc1cc(O)c(CN(C)C)c2c1C(=O)/C(=C/c1ccco1)O2,inconclusive: -47%
15,COC(=O)C(N)Cc1ccc(O)cc1 (stereo unspecified),inconclusive: -38.4%
16,CCO[C@@H]1OC(C(=O)N2CCOCC2)=C[C@H](c2ccccc2)[C@H]1CCCO,inconclusive: -36.3%
17,CC(=O)N1CC(c2ccccc2)C(c2ccc(Cl)cc2)=N1 (stereo unspecified),inactive: 27%
18,COc1cccc(NC(=O)CN(C)C(=O)c2cc(-c3cccc(Br)c3)nc3ccccc23)c1,inconclusive: -31.3%
19,Cn1cccc1C(=O)C(=O)Nc1ccccc1,inactive: 5.82%
20,CCOc1ccc(-n2c(=S)sc3c(=O)n(-c4ccccc4)c(SCC(=O)O)nc32)cc1,inconclusive: -31.4%
21,Cc1ccc(NC(=O)CN2C(=O)C3C4C=CC(C4)C3C2=O)cc1 (stereo unspecified),inactive: -6.58%
22,CN1CCSc2ccc(C(=O)Nc3cccc(F)c3)cc21,inconclusive: -30%

# 26 structures already listed, ordered by SMILES length, largest number first:
row,Compound,"activity change, negative = inhibition"
11,CCN1C(=O)[C@@H]2[C@@H](c3ccc(-c4ccc(Cl)c(Cl)c4)cc3)N3CCC[C@@]3(C(=O)OC)[C@@H]2C1=O,inconclusive: -32.4%
10,NC(=O)CC(NC(=O)c1ccccc1)c1ccc(NC2CCN(Cc3ccccc3)CC2)c([N+](=O)[O-])c1 (stereo unspecified),inactive: -5.59%
7,O=C(O)/C=C/c1ccc(S(=O)(=O)N2CCN(CCN3C(=O)C4C5C=CC(C5)C4C3=O)CC2)cc1 (stereo unspecified),inconclusive: -30.5%
9,Cc1ccc2c(c1)-c1c(ssc1=S)C(C)(C)N2C(=O)CN1C(=O)c2ccccc2C1=O,inconclusive: -30.7%
8,CCN(CC)c1ccc(C(=O)NCc2ccc3c(c2)CCN3C(=O)c2ccc(F)cc2)cc1,inactive: 4.83%
13,Cc1ccc(NC(=O)N2CCc3cc(S(=O)(=O)N4CCC(C)CC4)ccc32)cc1C,inconclusive: -34.8%
18,CCOc1ccc(-n2c(=O)c3sccc3n(CC(=O)NC3CCCCC3)c2=O)cc1,inactive: 38.5%
11,CCc1ccc(-c2nc(CS(=O)CC(=O)NCCN3CCCCCC3)c(C)o2)cc1 (stereo unspecified),inactive: -9.65%
11,CCOC(=O)c1cccc(NC(=O)C(CC(C)C)N2Cc3ccccc3C2=O)c1 (stereo unspecified),inconclusive: -30.4%
7,CC1Sc2ccc(S(=O)(=O)CCC(=O)N(C)Cc3ccco3)cc2NC1=O (stereo unspecified),inconclusive: -46.4%
14,Cc1ccc(-n2nc3c(c2NC(=O)C2CC2)CS(=O)(=O)C3)cc1C,inconclusive: -38.1%
13,CC12CN3CC(c4ccccc4)(CN(C1)C3c1ccc(Cl)cc1)C2=O (stereo unspecified),inactive: -0.837%
17,CCCc1ccc(OCC(=O)Nc2sc3c(c2C(=O)OC)CCCCC3)cc1,inactive: 39.5%
21,Cc1ccc(NC(=O)CN2C(=O)C3C4C=CC(C4)C3C2=O)cc1 (stereo unspecified),inactive: -6.58%
14,Cc1cc(O)c(CN(C)C)c2c1C(=O)/C(=C/c1ccco1)O2,inconclusive: -47%
5,Cc1cc(=O)[nH]c(N/N=C/c2ccccc2C(F)(F)F)n1,inconclusive: -30.2%
7,Cc1ccccc1NC(=O)c1ccc(-c2ccc(Cl)cc2Cl)o1,active: -50.6%
2,COc1ccc(-c2nnc(NC(=O)c3ccccc3C)o2)cc1,inactive: -7.1%
4,CCCn1c(=N)n(CC(=O)C(C)(C)C)c2ccccc21,inactive: -3.56%
15,CC(C)NC(=O)CCCn1cc([N+](=O)[O-])cn1,inconclusive: -32%
15,CC1CCCC(C)N1/N=C/c1ccccc1C(=O)O (stereo unspecified),inconclusive: -35.8%
5,O=C(N/N=C/c1ccc(Br)s1)c1ccccn1,inactive: -7.25%
22,CC(=O)Nc1cc2c(cc1C(C)=O)OCCO2,inconclusive: -35.3%
12,O=C1C=CCC(/C=C/c2ccccc2)O1 (stereo unspecified),inactive: -7.2%
15,COC(=O)C(N)Cc1ccc(O)cc1 (stereo unspecified),inconclusive: -38.4%
12,O=C1NCC(O)=C1C=NCCCO,inactive: 37.7%

# Further compounds:

row,Compound,"activity change, negative = inhibition"
1,CC(=O)C1C(c2ccc(Cl)cc2)c2c(n[nH]c2C)CC1(C)O (stereo unspecified),inconclusive: -32.3%
2,O=C(CSc1ccccn1)Nc1ccc(NC(=O)CSc2ccccn2)cc1,inactive: -6.29%
3,CCOC(=O)/C(C#N)=C/c1c(Oc2cccc(C)c2)nc2c(C)cccn2c1=O,inconclusive: -34.9%
4,CCCNC(=O)C1CCN(S(=O)(=O)c2ccc3c(c2)CCCN3C(C)=O)CC1,inconclusive: -32.6%
5,CC(C)(C)OC(=O)NCCc1nnc(S(=O)(=O)Cc2ccc(Cl)cc2Cl)o1,inactive: 8.5%
6,CCc1nc(SCC(=O)Nc2ccccc2OC)c2c(C)c(C)sc2n1,inconclusive: -35.1%
7,C/C(=N\N(c1ccccc1)c1ccccc1)c1ccco1,inconclusive: -31.8%
8,O=C(CCCCn1c(=O)c2ccccc2n(CC(=O)NC2CCCC2)c1=O)NCc1ccco1,inconclusive: -38.1%
9,Cc1cccc(C)c1OCCn1nnc2ccccc21,inactive: 7.77%
10,O=C(NCCOC(=O)c1ccc(Cl)cc1)c1cccnc1,inconclusive: -43.7%
11,O=C(Cn1cc(S(=O)(=O)Cc2ccc([N+](=O)[O-])cc2)c2ccccc21)N1CCOCC1,inconclusive: -30.6%
12,CCS(=O)(=O)N1CCC(C(=O)O)CC1,inconclusive: -31.8%
13,Cc1ccc(S(=O)(=O)N2CCC(=O)N(CCOC(=O)Nc3cc(C)cc(C)c3)CC2)cc1,inconclusive: -30.1%
14,COc1cc(/C=N/OCC(=O)NC2CCS(=O)(=O)C2)ccc1OC(F)F (stereo unspecified),inconclusive: -36.2%
15,Cc1ccccc1CSc1nc2ccsc2c(=O)n1CCC(C)C,inconclusive: -35.3%
16,CCN(CC(=O)NC(=O)NCc1ccco1)Cc1ccccc1,inactive: 1.74%
17,CC(=O)N1c2ccc(S(=O)(=O)NCCC(=O)N(C)C3CCCCC3)cc2CC1C (stereo unspecified),inconclusive: -35%
18,CC1CC(C)CN(CCCNC(=O)Cc2c(C(=O)O)[nH]c3ccccc23)C1 (stereo unspecified),inconclusive: -36.9%
19,CCOc1ccc(NC(=O)CSc2oc(-c3ccc(C)cc3)nc2S(=O)(=O)c2ccc(C)cc2)cc1,inconclusive: -45.8%
20,CN(C(=O)c1ccccc1C(=O)OCC(=O)NCc1ccccc1)C1CCCCC1,inconclusive: -31%
